# Experimental data taken from PubChem BioAssay AID540256 (National Center for Advancing Translational Sciences (NCATS), 2011).
# The campaign covered roughly 300,000 compounds. About 3,700 (1.2%) were called active. The shares of active, inactive and inconclusive entries below differ from those in the screen. The call rests on the fitted dose curve; tested in HEK293 cells. Potencies beside an inconclusive call are fits to weak or partial responses and may not hold up.
# Experiment: qHTS for Inhibitors of binding or entry into cells for Lassa Virus; further: nearly all actives have a fitted effect of over 50% in size
# Details: Lassa virus pseudotype entry inhibition, cell reporter; series mostly up to 37.9 µM
# Potency means the concentration at half of the fitted maximal effect.
row,SMILES,Potency
1,CCCCNC(=O)Nc1ccccn1,"inconclusive: 7.08 µM [activator, partial curve]"
2,NC1(C(=O)O)CSSC1,"inconclusive: 15.8 µM [inhibitor, single point]"
3,Cc1ccc(NC(=O)c2c(NC(=O)c3ccco3)sc3c2CCC(C(C)(C)C)C3)c(C)c1 (stereo unspecified),inactive
4,CCOc1ccc(CN2CCNC(=O)C2CC(=O)NCC2CCOCC2)cc1 (stereo unspecified),inactive
5,CCCC(=O)c1ccc(N2CCN(C(=O)c3ccc(Br)cc3)CC2)c(F)c1,inactive
6,COc1cccc(CSc2nc3cc4c(cc3cc2C)OCCO4)c1,"inconclusive: 7.31 µM [inhibitor, partial curve]"
7,O=C(Cc1ccccc1[N+](=O)[O-])NCCC1=CCCCC1,"inconclusive: 35.5 µM [inhibitor, single point]"
8,COc1ccc(NC2CC(=O)N(C(C)C)C2=O)cc1 (stereo unspecified),"inconclusive: 0.326 µM [activator, full curve, poor fit]"
9,Cn1c(/C=C/c2cccc(Br)c2)nc2ccccc2c1=O,"inconclusive: 35.5 µM [inhibitor, single point]"
10,Nc1nnnn1/N=C/c1ccc(N2CCCCC2)c([N+](=O)[O-])c1,inactive
11,Cc1cc(=O)cc(C)n1-c1ccc(Br)cc1,"inconclusive: 3.16 µM [inhibitor, partial curve, poor fit]"
12,Fc1ccc2[nH]c3c(N4CCN(Cc5ccc6c(c5)OCO6)CC4)ncnc3c2c1,active: 15.8 µM
13,O=C(Nc1ccc2c(c1)CCCN2C(=O)c1cccs1)c1cccc(C(F)(F)F)c1,"inconclusive: 0.708 µM [inhibitor, full curve, poor fit]"
14,O=C(CCN1C(=O)NC2(CCCC2)C1=O)Nc1ccc(-c2nc3ccccc3s2)cc1,"inconclusive: 22.4 µM [inhibitor, single point]"
15,COC(=O)c1c(NC(=O)CN2CCOCC2)sc2c1CCC(C)C2 (stereo unspecified),"inconclusive: 35.5 µM [inhibitor, single point]"
16,CN(C)C(=O)C(OC(=O)c1ccc2c(c1)CCCC2)c1ccccc1 (stereo unspecified),"inconclusive: 29.1 µM [inhibitor, single point]"
17,O=C(Nc1ccc(N2CCCC2)c(S(=O)(=O)Nc2cccc(C(F)(F)F)c2)c1)c1cccs1,"inconclusive: 23.1 µM [inhibitor, partial curve]"
18,O=C(N/N=C/c1cn(-c2ccccc2)nc1-c1cc2ccccc2o1)c1ccccc1Br,"inconclusive: 0.794 µM [activator, single point]"
19,O=C(NCC1CCCO1)c1ccc(COc2ccc(F)cc2)o1 (stereo unspecified),"inconclusive: 7.3 µM [inhibitor, partial curve, poor fit]"
20,CCOC(=O)C(=CNc1ccc(C(O)(C(=O)OCC)C(F)(F)F)cc1C)C(=O)OCC (stereo unspecified),"inconclusive: 25.1 µM [inhibitor, single point]"
21,CCOC(=O)N1CCN(C(=O)COC(=O)c2ccc(S(=O)(=O)N(CC)CC)cc2)CC1,inactive
22,CCCC(=O)NC(=S)Nc1ccccc1N1CCOCC1,"inconclusive: 1.26 µM [activator, single point]"
23,CSC1=NCCN1C(=O)C12CC3CC(CC(C3)C1)C2,inactive
24,CC(C)(C)c1ccc(S(=O)(=O)N2CCC(c3nc4ccc(Cl)cc4[nH]3)CC2)cc1,"inconclusive: 25.9 µM [inhibitor, partial curve, poor fit]"

row,SMILES,Potency
1,Nc1cc(Cl)nc(N/N=C/c2c(O)ccc3ccccc23)n1,"inconclusive: 8.91 µM [inhibitor, partial curve, poor fit]"
2,CC1CC(=O)c2cnc(Nc3ccccc3)nc2C1 (stereo unspecified),"inconclusive: 0.651 µM [activator, full curve, poor fit]"
3,CCOC(=O)C1CCN(C(=O)c2cc3ccc4cccnc4c3[nH]2)CC1,"inconclusive: 12.6 µM [activator, single point]"
4,COc1ccc(NC(=O)C(Sc2nnc(-c3ccncc3)n2-c2ccccc2C)c2ccccc2)cc1Cl (stereo unspecified),inactive
5,c1ccc(CCNc2nc(-c3ccccn3)nc3ccccc23)cc1,"inconclusive: 6.31 µM [inhibitor, full curve, poor fit]"
6,Cc1cc(OCc2nc(-c3cccnc3)no2)c(C)cc1Br,inactive
7,COc1ccc(OC)c(-c2csc(NC(=O)Cc3ccccc3OC)n2)c1,active: 7.94 µM
8,COc1ccc(C(=O)C2CCCN(Cc3ccon3)C2)c(OC)c1 (stereo unspecified),inactive
9,CCCNC(=O)c1ccc2c(c1)N=C(C)c1c(C)ccc(C)c1S2,"inconclusive: 0.891 µM [inhibitor, full curve, poor fit]"
10,CN1CCN(CC(=O)Nc2c(C#N)cnn2-c2ccccc2)CC1,inactive
11,O=C(CCN1C(=O)c2ccccc2S1(=O)=O)NCc1ccccc1,inactive
12,Cc1c(C(=O)Nc2ccc3c(c2)OCCO3)sc2nc(-c3ccccc3)cn12,"inconclusive: 29.1 µM [inhibitor, single point]"
13,CC(C)(C)OC(=O)N1CCC(c2c(C(=O)NCCN3CCC(Cc4ccccc4)CC3)cnn2-c2cccc(Cl)c2)CC1,"inconclusive: 31.6 µM [inhibitor, single point]"
14,Cc1cc(Br)c(NC(=O)COn2nnc3ccc(S(C)(=O)=O)cc32)c(Br)c1,inactive
15,COC(=O)c1ccc(Cl)c(NC(=O)CN(c2ccc(OC)cc2)S(=O)(=O)c2ccccc2)c1,"inconclusive: 14.1 µM [inhibitor, single point]"
16,Cc1cccc(N2CCN(C(=O)c3ccc4nc(-c5ccco5)c(-c5ccco5)nc4c3)CC2C)c1 (stereo unspecified),"inconclusive: 29.1 µM [inhibitor, single point]"
17,Cc1onc(-c2ccccc2Cl)c1C(=O)Nc1ccc(CN2CCCC2)cc1,inactive
18,CSc1nnc(-c2ccncc2)n1/N=C/c1cn(-c2ccccc2)nc1-c1ccc(Cl)cc1,inactive
19,COC(=O)c1cccc(NC(=O)CCCOc2cccc(C)c2)c1,"inconclusive: 20 µM [inhibitor, single point]"
20,Clc1cccc(-n2ncc3c(NC4CCCCC4)ncnc32)c1,"inconclusive: 35.5 µM [activator, single point]"
21,CCn1c(=O)c(=O)[nH]c2cc(C(=O)NC3CC3)ccc21,inactive
22,CC1CCN(c2nc3nonc3nc2N2CCC(C)CC2)CC1,inactive
23,O=C(Nc1ccccc1F)c1nc(S(=O)(=O)Cc2ccccc2F)ncc1Cl,"inconclusive: 10 µM [inhibitor, partial curve]"
24,O=C(N/N=C/c1cccs1)c1n[nH]c2c1CCCC2,active: 2.24 µM

row,SMILES,Potency
1,Cc1ccc(-n2c3nc(=O)[nH]c(=O)c-3cc3cc([N+](=O)[O-])ccc32)cc1,"inconclusive: 22.4 µM [inhibitor, partial curve, poor fit]"
2,O=C(CCNNC(=O)c1ccncc1)NCc1ccccc1,inactive
3,CC(C)(C)NNC(=S)Nc1cccc(C(F)(F)F)c1,inactive
4,Cc1cc(S(=O)(=O)N(Cc2ccccc2Cl)c2ccc3c(c2)CCC3)ccc1-n1cnnn1,"inconclusive: 1.41 µM [inhibitor, full curve]"
5,COc1ccc(CN2CCN(C3CCOCC3)CC2CCO)c(C)c1C (stereo unspecified),inactive
6,O=C(CCC1CCCN(C(=O)c2cccc(F)c2)C1)N1CCN(c2ccccn2)CC1 (stereo unspecified),inactive
7,COc1ccccc1C/C(N)=N/OC(=O)c1cccs1,active: 10 µM
8,COc1ccc(CN2CCNC(=O)C2CC(=O)N(C)Cc2nccn2C)cc1OC (stereo unspecified),"inconclusive: 4.47 µM [inhibitor, full curve, poor fit]"
9,Cc1cc(OCc2ccc(C(=O)Nc3ccc(C(=O)O)cc3)o2)ccc1Cl,"inconclusive: 4.47 µM [inhibitor, full curve]"
10,COc1ccc(C(=O)/C(C#N)=N/Nc2cccc([N+](=O)[O-])c2)cc1,active: 10.3 µM
11,CCOC(=O)c1sc(NS(=O)(=O)c2ccc(C)cc2)nc1C,"inconclusive: 3.66 µM [activator, single point]"
12,O=[N+]([O-])c1cccnc1N1CCC(c2cc(-c3ccc(Cl)cc3Cl)n[nH]2)CC1,"inconclusive: 35.5 µM [inhibitor, single point]"
13,COc1cc(/C=N/NC2=NC(C)(C)Cc3ccccc32)cc(OC)c1OC,inactive
14,CC(O)(C#CCN1CCOCC1)c1ccccc1 (stereo unspecified),"inconclusive: 4.47 µM [inhibitor, single point]"
15,COc1ccc(C(CNC(=O)CCNC(=O)c2ccccc2OC)N2CCCC2)cc1 (stereo unspecified),inactive
16,COc1ccc(N(CC(=O)Nc2cc(C)ccc2C)S(=O)(=O)c2ccccc2[N+](=O)[O-])c(OC)c1,"inconclusive: 5.01 µM [inhibitor, full curve]"
17,CCc1nc2ccccc2c(C(=O)OCC(=O)Nc2ccc(S(=O)(=O)N3CCOCC3)cc2)c1C,"inconclusive: 35.5 µM [inhibitor, single point]"
18,Cc1cc(=O)oc2c(C)c(OCC(=O)NC3CC(C)(C)NC(C)(C)C3)ccc12,"inconclusive: 3.55 µM [inhibitor, single point]"
19,Oc1ccc2ccccc2c1CN1CCN(c2ccccc2)CC1,inactive
20,Cc1ccc(N2C(=O)C(CC(=O)Nc3ccc(F)cc3)N(CCC3=CCCCC3)C2=O)cc1 (stereo unspecified),"inconclusive: 0.562 µM [activator, full curve, poor fit]"
21,N#C/C(=C\c1ccccc1OCc1ccc(C(=O)O)cc1)C(=O)Nc1ccc(O)cc1,inactive
22,COc1ccc(/C=C(/NC(=O)c2ccccc2)C(=O)N/N=C/c2ccncc2)cc1,"inconclusive: 7.31 µM [inhibitor, partial curve, poor fit]"
23,CC1(C)Cc2ccccc2-c2nnc(SCc3ccc(C#N)cc3)n21,"inconclusive: 29.1 µM [inhibitor, single point]"

# Sorted by molecular weight (rising): three of the compounds above.
row,SMILES,Potency
24,O=C(N/N=C/c1cccs1)c1n[nH]c2c1CCCC2,active: 2.24 µM
19,Oc1ccc2ccccc2c1CN1CCN(c2ccccc2)CC1,inactive
13,CC(C)(C)OC(=O)N1CCC(c2c(C(=O)NCCN3CCC(Cc4ccccc4)CC3)cnn2-c2cccc(Cl)c2)CC1,"inconclusive: 31.6 µM [inhibitor, single point]"
